# Source: PubChem BioAssay AID330 (DTP/NCI, 2004)
# The list does not hold the whole screen: it gathers tests that were run many times, whatever their T/C, doses with no T/C, and many T/C values between a quarter and a half above the control. Further doses and runs are listed elsewhere. T/C gives the treated animals as a percentage of the vehicle group. Some entries give survivors of the animals treated and no T/C: the source holds a T/C of zero for them, seemingly a mark for toxic or unscored doses. Some doses without a T/C left all or most animals alive at the check, yet need not have been tolerated: survival well below the control is almost never listed, so the zero probably covers shortened survival too. Survivors were counted at the toxicity check, usually on the fifth day, unless a day is given; later deaths do not show. Schedule codes are those of the source, taken here to give the interval after Q, in days (D) or hours (H), and the number of doses after X. Some doses were run more than once; the values are given in rising order. Some molecules as drawn cover several salts, stereoisomers or complexes of the source; a dose is that of the sample tested. Where survival is the endpoint, this PubChem deposit counts one and a half times the control or more as active, and values a quarter to a half above the control carry no call in these data; other NCI protocols may use other cut-offs. Signs of the kind (2×) stand for listed records that agree. Some T/C values carry the count of animals alive at the toxicity check (mostly the fifth day); where none is given, no animal had died by that day.
# Tested on: P388 leukemia ip, CD2F1 mice, survival T/C
# Assay: NCI In Vivo Anticancer Drug Screen. Data for tumor model P388 Leukemia (intraperitoneal) in CD2F1 (CDF1) mice
# Conditions: T/C endpoint: median survival time, higher T/C = longer survival
structure (smiles),measurement,setting,value
O=NNc1cnccn1,T/C,"dose: 6.25 mg/kg/injection, schedule: Q01DX009 (ip), vehicle: water",127 % of control
same,T/C,"dose: 11.0 mg/kg/injection, schedule: Q01DX009 (ip), vehicle: water, evaluated on day 30",144 % of control
same,T/C,"dose: 11.0 mg/kg/injection, schedule: Q01DX009 (ip), vehicle: water, evaluated on day 44",134 % of control
same,T/C,"dose: 11.0 mg/kg/injection, schedule: Q01DX009 (ip), vehicle: water, evaluated on day 45",133 and 145 % of control
same,T/C,"dose: 11.0 mg/kg/injection, schedule: Q01DX009 (ip), vehicle: water, evaluated on day 60",131 % of control
same,T/C,"dose: 11.3 mg/kg/injection, schedule: Q01DX009 (ip), vehicle: other",131 % of control
same,T/C,"dose: 11.3 mg/kg/injection, schedule: Q01DX009 (ip), vehicle: water",141 % of control (2×)
same,T/C,"dose: 12.5 mg/kg/injection, schedule: Q01DX009 (ip), vehicle: water","126, 138, 143 % of control"
same,T/C,"dose: 16.9 mg/kg/injection, schedule: Q01DX009 (ip), vehicle: other",140 % of control
same,T/C,"dose: 16.9 mg/kg/injection, schedule: Q01DX009 (ip), vehicle: water",144 % of control (2×)
same,T/C,"dose: 17.0 mg/kg/injection, schedule: Q01DX009 (ip), vehicle: water, evaluated on day 30",155 % of control
same,T/C,"dose: 17.0 mg/kg/injection, schedule: Q01DX009 (ip), vehicle: water, evaluated on day 40",165 % of control
same,T/C,"dose: 17.0 mg/kg/injection, schedule: Q01DX009 (ip), vehicle: water, evaluated on day 44",149 % of control
same,T/C,"dose: 17.0 mg/kg/injection, schedule: Q01DX009 (ip), vehicle: water, evaluated on day 45","141, 158, 159, 160, 161, 165, 168, 171 % of control"
same,T/C,"dose: 17.0 mg/kg/injection, schedule: Q01DX009 (ip), vehicle: water, evaluated on day 60",147 % of control
same,T/C,"dose: 25.0 mg/kg/injection, schedule: Q01DX009 (ip), vehicle: water, evaluated on day 30","132, 186, 187, 189, 195, 207 % of control"
same,T/C,"dose: 25.0 mg/kg/injection, schedule: Q01DX009 (ip), vehicle: water, evaluated on day 40",197 % of control
same,T/C,"dose: 25.0 mg/kg/injection, schedule: Q01DX009 (ip), vehicle: water, evaluated on day 44",172 % of control
same,T/C,"dose: 25.0 mg/kg/injection, schedule: Q01DX009 (ip), vehicle: water, evaluated on day 45","161, 184, 186, 190, 193, 206, 210 [9 of 10 alive], 216 % of control"
same,T/C,"dose: 25.0 mg/kg/injection, schedule: Q01DX009 (ip), vehicle: water, evaluated on day 60",183 % of control
same,T/C,"dose: 38.0 mg/kg/injection, schedule: Q01DX009 (ip), vehicle: water, evaluated on day 40",279 % of control
same,T/C,"dose: 38.0 mg/kg/injection, schedule: Q01DX009 (ip), vehicle: water, evaluated on day 41",240 % of control (2×)
same,T/C,"dose: 38.0 mg/kg/injection, schedule: Q01DX009 (ip), vehicle: water, evaluated on day 44",258 % of control
same,T/C,"dose: 38.0 mg/kg/injection, schedule: Q01DX009 (ip), vehicle: water, evaluated on day 45","200, 268, 276, 287, 294, 306, 361 % of control"
same,T/C,"dose: 56.0 mg/kg/injection, schedule: Q01DX009 (ip), vehicle: water, evaluated on day 30",111 % of control
same,T/C,"dose: 56.0 mg/kg/injection, schedule: Q01DX009 (ip), vehicle: water, evaluated on day 40",106 % of control
same,T/C,"dose: 56.0 mg/kg/injection, schedule: Q01DX009 (ip), vehicle: water, evaluated on day 45","105, 107, 108, 110, 114, 120, 125 % of control"
same,T/C,"dose: 56.0 mg/kg/injection, schedule: Q01DX009 (ip), vehicle: water, evaluated on day 60",283 % of control
same,T/C,"dose: 57.0 mg/kg/injection, schedule: Q01DX009 (ip), vehicle: other",137 % of control
same,survivor count,"dose: 100.0 mg/kg/injection, schedule: Q01DX009 (ip), vehicle: water",5 of 6
CC(C#N)(C#N)N=Nc1ccc(Br)cc1,survivor count,"dose: 200.0 mg/kg/injection, schedule: Q01DX005 (ip), vehicle: saline with Tween-80",3 of 6
O=C1C=CC(=O)c2c(O)c3c(c(O)c21)C[C@H](O)[C@H](O)[C@@H]3O,survivor count,"dose: 12.5 mg/kg/injection, schedule: Q04DX003 (ip), vehicle: water",0 of 6
same,survivor count,"dose: 25.0 mg/kg/injection, schedule: Q04DX003 (ip), vehicle: water",0 of 6
same,survivor count,"dose: 50.0 mg/kg/injection, schedule: Q04DX003 (ip), vehicle: water",0 of 6
same,survivor count,"dose: 100.0 mg/kg/injection, schedule: Q04DX003 (ip), vehicle: water",0 of 6
same,survivor count,"dose: 200.0 mg/kg/injection, schedule: Q04DX003 (ip), vehicle: water",0 of 6
COS(=O)(=O)N(C)c1nc(N(C)C)nc(N(C)C)n1,survivor count,"dose: 200.0 mg/kg/injection, schedule: Q01DX005 (ip), vehicle: saline",6 of 6
COc1ccc2c(c1O)-c1cccc3c1[C@@H](C2)N(CCCl)CC3,T/C,"dose: 4.0 mg/kg/injection, schedule: Q01DX009 (ip), vehicle: saline",126 % of control
same,T/C,"dose: 8.0 mg/kg/injection, schedule: Q01DX009 (ip), vehicle: Klucel (hydroxypropylcellulose) (HPC)",129 % of control
same,T/C,"dose: 12.5 mg/kg/injection, schedule: Q04DX003 (ip), vehicle: other",134 % of control
same,survivor count,"dose: 16.0 mg/kg/injection, schedule: Q01DX009 (ip), vehicle: Klucel (hydroxypropylcellulose) (HPC)",3 of 6 and 5 of 6
same,T/C,"dose: 16.0 mg/kg/injection, schedule: Q01DX009 (ip), vehicle: saline",128 [5 of 6 alive] and 132 % of control
same,T/C,"dose: 25.0 mg/kg/injection, schedule: Q04DX003 (ip), vehicle: other",125 % of control
same,survivor count,"dose: 32.0 mg/kg/injection, schedule: Q01DX009 (ip), vehicle: Klucel (hydroxypropylcellulose) (HPC)",0 of 6 and 1 of 6
same,survivor count,"dose: 32.0 mg/kg/injection, schedule: Q01DX009 (ip), vehicle: saline",6 of 6
same,survivor count,"dose: 64.0 mg/kg/injection, schedule: Q01DX009 (ip), vehicle: saline",1 of 6 and 2 of 6
same,survivor count,"dose: 100.0 mg/kg/injection, schedule: Q04DX003 (ip), vehicle: other",0 of 6 and 6 of 6
CCOc1ccc(N=Nc2c(C)nn(C(N)=S)c2OCC)cc1,survivor count,"dose: 60.0 mg/kg/injection, schedule: Q01DX005 (ip), vehicle: Klucel (hydroxypropylcellulose) (HPC)",1 of 6 and 3 of 6
same,survivor count,"dose: 120.0 mg/kg/injection, schedule: Q01DX005 (ip), vehicle: Klucel (hydroxypropylcellulose) (HPC)",0 of 6
same,survivor count,"dose: 240.0 mg/kg/injection, schedule: Q01DX005 (ip), vehicle: Klucel (hydroxypropylcellulose) (HPC)",0 of 6
CC(=O)Nc1nnc(-c2coc3ccccc3c2=O)s1,survivor count,"dose: 240.0 mg/kg/injection, schedule: Q01DX005 (ip), vehicle: saline with Tween-80",6 of 6
Cc1ccccc1N1C(=O)[N+](C)(C)N=C1[O-],T/C,"dose: 400.0 mg/kg/injection, schedule: Q04DX003 (ip), vehicle: saline",125 % of control
COc1ccc([N+](=O)[O-])cc1NC(=O)c1ccc2c(c1)C(=O)OC2=O,survivor count,"dose: 60.0 mg/kg/injection, schedule: Q01DX005 (ip), vehicle: saline with Tween-80",5 of 6
same,survivor count,"dose: 120.0 mg/kg/injection, schedule: Q01DX005 (ip), vehicle: saline with Tween-80",5 of 6 and 6 of 6
O=C1NC(=S)NC(=O)C1=Cc1cccc2cc3ccccc3cc12,survivor count,"dose: 200.0 mg/kg/injection, schedule: Q01DX005 (ip), vehicle: Klucel (hydroxypropylcellulose) (HPC)",6 of 6
CSc1nc(Cl)c2cn[nH]c2n1,survivor count,"dose: 400.0 mg/kg/injection, schedule: Q04DX002 (ip), vehicle: water",2 of 6
CCN(CC)[P+](c1ccccc1O)(N(CC)CC)N(CC)CC,survivor count,"dose: 6.25 mg/kg/injection, schedule: Q01DX009 (ip), vehicle: saline",1 of 6 and 5 of 6
same,survivor count,"dose: 12.5 mg/kg/injection, schedule: Q01DX009 (ip), vehicle: saline",0 of 6
same,survivor count,"dose: 25.0 mg/kg/injection, schedule: Q01DX009 (ip), vehicle: saline",0 of 6
same,survivor count,"dose: 50.0 mg/kg/injection, schedule: Q01DX009 (ip), vehicle: saline",0 of 6
same,survivor count,"dose: 100.0 mg/kg/injection, schedule: Q01DX009 (ip), vehicle: saline",0 of 6
same,survivor count,"dose: 200.0 mg/kg/injection, schedule: Q01DX009 (ip), vehicle: saline",0 of 6
same,survivor count,"dose: 400.0 mg/kg/injection, schedule: Q01DX009 (ip), vehicle: saline",0 of 6
